Measured values from PubChem BioAssay AID340 (DTP/NCI, 2004).
The list does not hold the whole screen: it gathers tests that were run many times, whatever their T/C, doses with no T/C, and many T/C values between a quarter and a half above the control. Other doses and runs of a compound stand elsewhere. T/C is the treated group as % of the vehicle group. Some entries give survivors of the animals treated and no T/C: the source files T/C as zero there, which appears to mark a toxic dose or a test without result, not a measured value. Some survivor counts are full or nearly so, which does not show that the dose was tolerated: the source hardly ever lists a survival T/C far under the control, and the zero likely stands for such cases as well. Survivors were counted at the toxicity check, usually on the fifth day, unless a day is given; later deaths do not show. Schedules are NCI's codes, taken here to give the interval after Q, in days (D) or hours (H), and the number of doses after X. Some entries were tested several times; the results are listed from low to high. For survival time, this PubChem deposit counts one and a half times the control or more as active, and values a quarter to a half above the control carry no call in these data; other NCI protocols may use other cut-offs. Marks such as (2×) stand for listed records that agree. Some T/C values are followed by the survivors on the day toxicity was checked, most often the fifth; where none is given, no animal had died by that day.

Test system: CD2F1 mice, ip reticulum cell sarcoma, survival T/C
Experiment: NCI In Vivo Anticancer Drug Screen. Data for tumor model Reticulum Cell Sarcoma (Kelley Mouse) (intraperitoneal) in CD2F1 (CDF1) mice
Conditions: T/C endpoint: median survival time, higher T/C = longer survival
Experimental: The antitumor activity of compounds was measured in mice bearing transplantable tumors. Survival or tumor size were measured and the results are expressed as the measurement made in the treated group (T) divided by the measurement made in the vehicle treated control group (C). The tumor model used in this assay is Reticulum Cell Sarcoma (Kelley Mouse) (intraperitoneal) in CD2F1 (CDF1) mice

[1] = dose: 0.03 mg/kg/injection, schedule: Q01DX010 (ip), vehicle: saline
[2] = dose: 0.25 mg/kg/injection, schedule: Q01DX010 (ip), vehicle: saline
[3] = dose: 0.5 mg/kg/injection, schedule: Q01DX010 (ip), vehicle: saline
[4] = dose: 12.5 mg/kg/injection, schedule: Q01DX010 (sc), vehicle: steroid suspending solution
[5] = dose: 50.0 mg/kg/injection, schedule: Q01DX010 (sc), vehicle: steroid suspending solution
[6] = dose: 100.0 mg/kg/injection, schedule: Q01DX010 (sc), vehicle: steroid suspending solution
[7] = dose: 200.0 mg/kg/injection, schedule: Q01DX010 (sc), vehicle: steroid suspending solution
[8] = dose: 31.3 mg/kg/injection, schedule: Q01DX010 (ip), vehicle: saline
[9] = dose: 4.0 mg/kg/injection, schedule: Q01DX010 (ip), vehicle: saline

Compound: CC[C@]1(O)C[C@H]2CN(CCc3c([nH]c4ccccc34)[C@@](C(=O)OC)(c3cc4c(cc3OC)N(C=O)[C@H]3[C@@](O)(C(=O)OC)[C@H](OC(C)=O)[C@]5(CC)C=CCN6CC[C@]43[C@@H]65)C2)C1
- T/C [1]: 89, 97, 115 % of control
- survivor count [1]: 6 of 6
- T/C (dose: 0.06 mg/kg/injection, schedule: Q01DX010 (ip), vehicle: saline): 87, 100, 108, 111 % of control
- T/C (dose: 0.12 mg/kg/injection, schedule: Q01DX010 (ip), vehicle: saline): 88, 100, 102, 104 % of control
- T/C [2]: 91 and 98 % of control
- survivor count [2]: 6 of 6
- T/C [3]: 92 % of control
- survivor count [3]: 4 of 6 and 6 of 6

Compound: O=C(Nc1ccc(C2=NCCCN2)cc1)c1ccc(NC(=O)c2ccc(C3=NCCCN3)cc2)cc1
- T/C (dose: 1.0 mg/kg/injection, schedule: Q01DX010 (ip), vehicle: other): 131 % of control
- T/C (dose: 4.0 mg/kg/injection, schedule: Q01DX010 (ip), vehicle: other): 148 % of control
- survivor count (dose: 8.0 mg/kg/injection, schedule: Q01DX010 (ip), vehicle: other): 6 of 6
- survivor count (dose: 16.0 mg/kg/injection, schedule: Q01DX010 (ip), vehicle: other): 1 of 6 and 2 of 6

Compound: CCN(CC)CCNc1ccc(C)c2sc3ccccc3c(=O)c12
- T/C (dose: 50.0 mg/kg/injection, schedule: Q01DX010 (ip), vehicle: saline): 131 and 137 % of control
- T/C (dose: 100.0 mg/kg/injection, schedule: Q01DX010 (ip), vehicle: saline): 128 % of control

Compound: C[C@]12C=CC(=O)C=C1CC[C@@H]1[C@@H]2C(=O)C[C@@]2(C)[C@H]1CC[C@]2(O)C(=O)CO
- T/C [4]: 86 (2×) and 100 % of control
- survivor count [4]: 6 of 6
- T/C (dose: 25.0 mg/kg/injection, schedule: Q01DX010 (sc), vehicle: steroid suspending solution): 86, 94 [5 of 6 alive], 97, 108 % of control
- T/C [5]: 86 % of control (2×)
- survivor count [5]: 5 of 6 and 6 of 6
- T/C [6]: 87 % of control
- survivor count [6]: 3 of 6 and 6 of 6
- T/C [7]: 87 and 90 % of control
- survivor count [7]: 5 of 6 and 6 of 6

Compound: Nc1nc(=S)c2ncn(C3OC(CO)C(O)C3O)c2[nH]1 (stereo unspecified)
- T/C (dose: 8.0 mg/kg/injection, schedule: Q01DX010 (ip), vehicle: saline): 128 % of control

Compound: CN(C)c1ccc(Nc2c3ccccc3nc3ccccc23)cc1
- T/C (dose: 120.0 mg/kg/injection, schedule: Q01DX010 (ip), vehicle: saline): 125 % of control

Compound: Nc1c(Br)cc2c(c1Br)Cc1cc([N+](=O)[O-])ccc1-2
- survivor count [8]: 5 of 6
- survivor count (dose: 250.0 mg/kg/injection, schedule: Q01DX010 (ip), vehicle: saline): 5 of 6

Compound: Nc1nc(=S)c2[nH]cnc2[nH]1
- T/C (dose: 2.5 mg/kg/injection, schedule: Q01DX010 (ip), vehicle: saline): 132 and 138 % of control

Compound: CS(=O)(=O)OCCN(CCOS(C)(=O)=O)c1ccc(N=O)cc1
- T/C [3]: 127 and 130 % of control
- survivor count [9]: 6 of 6
- T/C (dose: 125.0 micrograms/kg/injection, schedule: Q01DX010 (ip), vehicle: saline): 141 % of control

Compound: CCN(CCNc1ccc(C)c2sc3cc(Cl)ccc3c(=O)c12)CC(C)O (stereo unspecified)
- survivor count [8]: 7 of 7
- survivor count (dose: 62.5 mg/kg/injection, schedule: Q01DX010 (ip), vehicle: saline): 6 of 6
- survivor count (dose: 500.0 mg/kg/injection, schedule: Q01DX010 (ip), vehicle: saline): 3 of 6

Compound: O=c1[nH]c(=O)n(C2CC(O)C(CO)O2)cc1F (stereo unspecified)
- T/C (dose: 10.0 mg/kg/injection, schedule: Q01DX010 (ip), vehicle: saline): 131 % of control

Compound: O=C(Nc1ccc(NC2=NCCN2)cc1)c1ccc(C(=O)Nc2ccc(NC3=NCCN3)cc2)cc1
- T/C [9]: 147 % of control
